The data set concerns the target mHSP70 (cell surface HSP70 + assayed on PANC-1 cells) (UniProt P0DMV8). Nature of the data set: flow cytometry. The note with it: apparent Kd on whole PANC-1 cells, 37 C, protein on the cell surface, protein details: native on PANC-1 cells (ATCC CRL-1469), label: Cy3, variant of P19. (In flow cytometry, cells or beads pass a laser one at a time.)

The chains behind the UniProt entries cited, without tags or fusion partners. Residues count along the entry.
UniProt P0DMV8, 2-641: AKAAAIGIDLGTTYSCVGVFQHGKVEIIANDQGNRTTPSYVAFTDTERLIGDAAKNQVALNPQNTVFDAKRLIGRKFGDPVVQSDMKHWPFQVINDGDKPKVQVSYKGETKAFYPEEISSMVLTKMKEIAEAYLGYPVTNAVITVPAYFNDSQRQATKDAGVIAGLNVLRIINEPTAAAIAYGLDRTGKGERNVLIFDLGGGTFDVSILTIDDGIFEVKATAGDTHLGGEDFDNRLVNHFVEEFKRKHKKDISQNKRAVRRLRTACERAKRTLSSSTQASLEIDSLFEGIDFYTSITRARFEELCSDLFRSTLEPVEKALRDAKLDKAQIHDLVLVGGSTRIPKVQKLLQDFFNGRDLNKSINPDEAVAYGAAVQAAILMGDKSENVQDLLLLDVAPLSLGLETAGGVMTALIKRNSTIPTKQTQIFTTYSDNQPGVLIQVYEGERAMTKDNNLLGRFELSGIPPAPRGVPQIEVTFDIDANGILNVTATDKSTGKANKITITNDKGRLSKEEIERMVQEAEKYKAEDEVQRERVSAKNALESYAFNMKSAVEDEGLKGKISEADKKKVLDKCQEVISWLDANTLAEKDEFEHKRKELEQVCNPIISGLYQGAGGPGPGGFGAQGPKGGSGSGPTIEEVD

For at least one entry, the source does not settle the construct or the ends of the probe. At least one result comes from cells or an extract, where the contact may be indirect.

In the case of “GGGAGACAAGAAUAAACGCUCAAUGGCGAAUGCCCGCCUAAUAGGGCGUUAUGACUUGUUGAGUUCGACAGGAGGCUCACAACAGGC [P19-5FdUMP]”, the Kd (5FdUMP in place of 2'-F-U, 2'-F-C, target mHSP70 assigned from earlier work (WO2013/154735)) worked out at 6.9 nM.

As for “GGGAGACAAGAAUAAACGCUCAAUGGCGAAUGCCCGCCUAAUAGGGCGUUAUGACUUGUUGAGUUCGACAGGAGGCUCACAACAGGC [P19-dFdCMP]”, the Kd (dFdCMP (gemcitabine monophosphate) in place of 2'-F-C, 2'-F-U, target mHSP70 assigned from earlier work) worked out at 7.8 nM.

These data come from patent US11845938.
